Measured values reported in the supplement of paper PMC7646827.
Counter-ions that a name gives are not always drawn. Many values rest on one well or one pass, so single values are uncertain.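 All cells are established human bladder cancer lines, one derived from a patient-derived xenograft. A luminescent ATP assay measured viability as percent inhibition relative to vehicle across seven dilutions. The paper rates scores above 59 very active, 30–59 active, 21–29 semi-active, 9–20 low active, below 9 inactive.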

How the values were obtained:
Experiment in all cases: drug sensitivity score DSS3 (score 0-100); higher = more sensitive; extreme values may be limits of the assay
Conditions in all cases: culture: 3D, ultra-low attachment; treatment time: 5 days
UM-UC-5 = system: UM-UC-5
TCCSUP = system: TCCSUP
T-24 = system: T-24
5637 = system: 5637
UM-UC-18 = system: UM-UC-18
UM-UC-6 = system: UM-UC-6
UM-UC-15 = system: UM-UC-15
UM-UC-14 = system: UM-UC-14
J82 = system: J82
UM-UC-3 = system: UM-UC-3
UM-UC-17 = system: UM-UC-17
SCaBER = system: SCaBER
UM-UC-12 = system: UM-UC-12
SW780 = system: SW780
BC8149 = system: BC8149
UM-UC-9 = system: UM-UC-9
UM-UC-1 = system: UM-UC-1

SMILES	drug sensitivity score DSS3 (UM-UC-5)	drug sensitivity score DSS3 (TCCSUP)	drug sensitivity score DSS3 (T-24)	drug sensitivity score DSS3 5637	drug sensitivity score DSS3 (UM-UC-18)	drug sensitivity score DSS3 (UM-UC-6)	drug sensitivity score DSS3 (UM-UC-15)	drug sensitivity score DSS3 (UM-UC-14)	drug sensitivity score DSS3 (J82)	drug sensitivity score DSS3 (UM-UC-3)	drug sensitivity score DSS3 (UM-UC-17)	drug sensitivity score DSS3 (SCaBER)	drug sensitivity score DSS3 (UM-UC-12)	drug sensitivity score DSS3 (SW780)	drug sensitivity score DSS3 (BC8149)	drug sensitivity score DSS3 (UM-UC-9)	drug sensitivity score DSS3 (UM-UC-1)
C=CC(=O)Nc1cccc(Nc2nc(Nc3ccc(NC4CN(CCF)C4)cc3OC)ncc2C(F)(F)F)c1 [CNX-2006] (max dose 10000 nM)	0	3.99	8.54	3.23	3.07	0.279	0	1.58	0.43	3.06	0	3.65	2.67	0	1.2	0.0511	0.488
O=C(O)C(=O)O.[NH-][C@@H]1CCCC[C@H]1[NH-].[Pt+2] [Oxaliplatin] (max dose 10000 nM)	0	1.87	0	0	0.884	0	0	0	0	0.68	0	4.73	0	0	2.19	0	0
O=C(O)COc1ccc(Br)cc1C=C1SC(=S)N(Cc2cccnc2)C1=O [Skp2 inhibitor C1 (SKPin C1)] (max dose 10000 nM)	0	0	0	0	0	1.26e-05	0	0	0	0	0	0	0	0	0	0	0
CC(C)(O)CNc1ncc(-c2ccnc(Nc3ccncc3)n2)c(CC2CC2)n1 [VPS34 inhibitor 1 (Compound 19, PIK-III analogue)] (max dose 10000 nM)	0	3.98	0	0.0408	0	0.27	1.82	0	0	0.1	0	0	0	0	1.04	0	2.26
COc1cc2nccc(Oc3ccc(NC(=O)C4(C(=O)Nc5ccc(F)cc5)CC4)cc3)c2cc1OC [Cabozantinib] (max dose 10000 nM)	0	6.82	0	0	0	0.491	0	0	1.15	0	0	1.25	2.09	1.12	0	0	1.81
CCN(CCO)CCCC(C)Nc1ccnc2cc(Cl)ccc12 (centres undefined) [Hydroxychloroquine Sulfate] (max dose 10000 nM)	0	0	0	0	0	0	0	0	0	0	0	0	0	0	5.21	0	0
CC(=O)Nc1nc(C)c(-c2ccc(Cl)c(S(=O)(=O)NCCO)c2)s1 [PIK-93] (max dose 10000 nM)	0	4.5	0.981	1.26	0	0.459	0	0	0.56	0	0	1.92	1.7	0	2.76	0	0
C#Cc1cccc(Nc2ncnc3cc(OC)c(OCCCCCCC(=O)NO)cc23)c1 [CUDC-101] (max dose 10000 nM)	0	2.67	1.27	6.15	2.54	0	2.46	0.336	0.873	1.27	0.889	1.77	3.75	0	2.08	0.616	0
C=C1/C(=C\C=C2/CCC[C@]3(C)[C@@H]([C@H](C)/C=C/[C@H](C)C(C)C)CC[C@@H]23)C[C@@H](O)C[C@@H]1O [Doxercalciferol] (max dose 10000 nM)	0	0	0	0	0	0	0	0	0	0	0	0	0	0	0	0	0
COc1ncc(-c2ccc3nccc(-c4ccnnc4)c3c2)cc1NS(=O)(=O)c1ccc(F)cc1F (max dose 10000 nM)	56.7	59.4	36.7	47.3	44.6	36.2	0	47	37.4	47.5	14.2	63.1	49.7	13.9	61	5.98	45.8
CN1C(=O)C(Cc2c[nH]c3ccccc23)NC1=S (centres undefined) [Necrostatin-1] (max dose 10000 nM)	1.91	0	0	5.29	0.939	0	0	0	0	0.646	0	1.08	2.91	0.284	3.63	1.73	0
COc1cc(C)[nH]c(=O)c1CNC(=O)c1c(C)n([C@H](C)C2CCOCC2)c2ccccc12 [CPI-360] (max dose 10000 nM)	0	5.2	0	1.93	0	1.64	0	0	0	0	0.111	0.462	0.00414	0	0	0	0.588

A few values from above:
For drug sensitivity score DSS3 5637, COc1ncc(-c2ccc3nccc(-c4ccnnc4)c3c2)cc1NS(=O)(=O)c1ccc(F)cc1F (max dose 10000 nM) is listed with 47.3
For drug sensitivity score DSS3 (J82), O=C(O)COc1ccc(Br)cc1C=C1SC(=S)N(Cc2cccnc2)C1=O [Skp2 inhibitor C1 (SKPin C1)] (max dose 10000 nM) is listed with 0
